Test results from US20150285810A1.
These are yes or no findings as the source states them, for the method shown. For some of these results: In cells and extracts the contact can be indirect. Some results given as binding are weak or reduced against the parent protein; the word gives no strength. For some of these results: Tags and fused reporters may be left off the sequences shown.

T1: iASPP (1-240)-GST (human) (UniProt Q8WUF5)
T1 sequence: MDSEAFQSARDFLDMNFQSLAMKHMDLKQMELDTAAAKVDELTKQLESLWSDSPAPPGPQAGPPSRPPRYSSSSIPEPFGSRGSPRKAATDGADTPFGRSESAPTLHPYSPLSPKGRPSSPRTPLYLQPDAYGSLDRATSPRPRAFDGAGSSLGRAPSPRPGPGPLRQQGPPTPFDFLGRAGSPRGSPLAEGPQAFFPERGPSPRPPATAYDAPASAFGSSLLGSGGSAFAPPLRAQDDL

T2: iASPP (inhibitory Apoptosis-Stimulating Protein of p53), fast-migrating, non-modified form (not phosphorylated at Ser84/Ser113) (human), Q8WUF5
T2 chain: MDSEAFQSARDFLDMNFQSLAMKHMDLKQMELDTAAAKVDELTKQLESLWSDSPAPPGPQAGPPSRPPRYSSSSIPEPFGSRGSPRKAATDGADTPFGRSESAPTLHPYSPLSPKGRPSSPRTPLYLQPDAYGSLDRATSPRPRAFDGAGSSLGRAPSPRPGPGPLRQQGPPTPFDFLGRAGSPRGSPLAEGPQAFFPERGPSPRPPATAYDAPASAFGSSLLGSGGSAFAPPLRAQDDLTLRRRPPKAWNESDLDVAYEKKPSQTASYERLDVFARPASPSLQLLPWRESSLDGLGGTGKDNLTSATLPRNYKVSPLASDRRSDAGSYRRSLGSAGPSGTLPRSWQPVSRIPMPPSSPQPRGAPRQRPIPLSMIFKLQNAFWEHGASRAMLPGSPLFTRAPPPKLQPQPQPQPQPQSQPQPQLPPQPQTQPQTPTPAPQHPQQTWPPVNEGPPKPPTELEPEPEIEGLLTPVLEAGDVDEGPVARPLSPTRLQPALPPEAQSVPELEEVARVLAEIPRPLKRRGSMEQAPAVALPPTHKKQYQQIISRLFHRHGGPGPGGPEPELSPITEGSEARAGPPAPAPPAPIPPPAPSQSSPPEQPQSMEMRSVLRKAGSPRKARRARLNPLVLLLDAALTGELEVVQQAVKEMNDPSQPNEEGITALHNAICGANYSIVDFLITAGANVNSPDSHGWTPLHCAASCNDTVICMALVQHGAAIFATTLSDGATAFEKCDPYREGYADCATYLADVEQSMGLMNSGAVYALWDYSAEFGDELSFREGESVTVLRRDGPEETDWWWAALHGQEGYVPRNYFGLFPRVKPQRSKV

T3: iASPP (625-828)-His (human) (UniProt Q8WUF5)
T3 sequence: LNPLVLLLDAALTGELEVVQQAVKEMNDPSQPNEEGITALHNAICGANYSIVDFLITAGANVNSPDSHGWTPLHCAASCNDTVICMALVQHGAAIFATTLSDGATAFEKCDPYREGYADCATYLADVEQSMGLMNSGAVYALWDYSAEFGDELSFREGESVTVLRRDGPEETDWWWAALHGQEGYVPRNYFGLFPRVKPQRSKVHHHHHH


Experiments:
[1] = target: T1, iASPP (1-240)-GST (human); test: in vitro translated iASPP(625-828)-V5 mutant pulled down with iASPP(1-240)-GST glutathione beads
[2] = target: T2, iASPP (inhibitory Apoptosis-Stimulating …); test: non-denaturing versus denaturing gel Western blot of H1299 lysates; settings: remark: other sources report otherwise
[3] = target: T3, iASPP (625-828)-His (human); test: glutathione bead pull-down of purified proteins, anti-His blot

binding [1] | Binder | other results
binds | iASPP(625-828)/T724A/N813A (protein, not shown: small tags and cut ends) LNPLVLLLDAALTGELEVVQQAVKEMNDPSQPNEEGITALHNAICGANYSIVDFLITAGANVNSPDSHGWTPLHCAASCNDTVICMALVQHGAAIFATTASDGATAFEKCDPYREGYADCATYLADVEQSMGLMNSGAVYALWDYSAEFGDELSFREGESVTVLRRDGPEETDWWWAALHGQEGYVPRAYFGLFPRVKPQRSKV | 
binds | iASPP(625-828)/T724A/Y814A (protein, not shown: small tags and cut ends) LNPLVLLLDAALTGELEVVQQAVKEMNDPSQPNEEGITALHNAICGANYSIVDFLITAGANVNSPDSHGWTPLHCAASCNDTVICMALVQHGAAIFATTASDGATAFEKCDPYREGYADCATYLADVEQSMGLMNSGAVYALWDYSAEFGDELSFREGESVTVLRRDGPEETDWWWAALHGQEGYVPRNAFGLFPRVKPQRSKV | 
 | iASPP (inhibitory Apoptosis-Stimulating Protein of p53), fast-migrating, non-modified form (not phosphorylated at Ser84/Ser113), Q8WUF5 1-828 (protein) MDSEAFQSARDFLDMNFQSLAMKHMDLKQMELDTAAAKVDELTKQLESLWSDSPAPPGPQAGPPSRPPRYSSSSIPEPFGSRGSPRKAATDGADTPFGRSESAPTLHPYSPLSPKGRPSSPRTPLYLQPDAYGSLDRATSPRPRAFDGAGSSLGRAPSPRPGPGPLRQQGPPTPFDFLGRAGSPRGSPLAEGPQAFFPERGPSPRPPATAYDAPASAFGSSLLGSGGSAFAPPLRAQDDLTLRRRPPKAWNESDLDVAYEKKPSQTASYERLDVFARPASPSLQLLPWRESSLDGLGGTGKDNLTSATLPRNYKVSPLASDRRSDAGSYRRSLGSAGPSGTLPRSWQPVSRIPMPPSSPQPRGAPRQRPIPLSMIFKLQNAFWEHGASRAMLPGSPLFTRAPPPKLQPQPQPQPQPQSQPQPQLPPQPQTQPQTPTPAPQHPQQTWPPVNEGPPKPPTELEPEPEIEGLLTPVLEAGDVDEGPVARPLSPTRLQPALPPEAQSVPELEEVARVLAEIPRPLKRRGSMEQAPAVALPPTHKKQYQQIISRLFHRHGGPGPGGPEPELSPITEGSEARAGPPAPAPPAPIPPPAPSQSSPPEQPQSMEMRSVLRKAGSPRKARRARLNPLVLLLDAALTGELEVVQQAVKEMNDPSQPNEEGITALHNAICGANYSIVDFLITAGANVNSPDSHGWTPLHCAASCNDTVICMALVQHGAAIFATTLSDGATAFEKCDPYREGYADCATYLADVEQSMGLMNSGAVYALWDYSAEFGDELSFREGESVTVLRRDGPEETDWWWAALHGQEGYVPRNYFGLFPRVKPQRSKV | binding [2]: binds
 | iASPP (1-240)-GST (protein, not shown: a dimerising Fc or GST) MDSEAFQSARDFLDMNFQSLAMKHMDLKQMELDTAAAKVDELTKQLESLWSDSPAPPGPQAGPPSRPPRYSSSSIPEPFGSRGSPRKAATDGADTPFGRSESAPTLHPYSPLSPKGRPSSPRTPLYLQPDAYGSLDRATSPRPRAFDGAGSSLGRAPSPRPGPGPLRQQGPPTPFDFLGRAGSPRGSPLAEGPQAFFPERGPSPRPPATAYDAPASAFGSSLLGSGGSAFAPPLRAQDDL | binding [3]: binds
